Experimental data from article PMC10623572, “Subtle Structural Modification of a Synthetic Cannabinoid Receptor Agonist Drastically Increases its Efficacy at the CB1 Receptor” (ACS Chemical Neuroscience, 2023).
No constants are given. Whether binding was seen depends on the method and setting. Binding seen in cells or lysates may run through a third protein. Some binding calls cover weakened binding; strength is not graded here.

Chains of the proteins cited; added tags and fusions are not shown.
UniProt P21554: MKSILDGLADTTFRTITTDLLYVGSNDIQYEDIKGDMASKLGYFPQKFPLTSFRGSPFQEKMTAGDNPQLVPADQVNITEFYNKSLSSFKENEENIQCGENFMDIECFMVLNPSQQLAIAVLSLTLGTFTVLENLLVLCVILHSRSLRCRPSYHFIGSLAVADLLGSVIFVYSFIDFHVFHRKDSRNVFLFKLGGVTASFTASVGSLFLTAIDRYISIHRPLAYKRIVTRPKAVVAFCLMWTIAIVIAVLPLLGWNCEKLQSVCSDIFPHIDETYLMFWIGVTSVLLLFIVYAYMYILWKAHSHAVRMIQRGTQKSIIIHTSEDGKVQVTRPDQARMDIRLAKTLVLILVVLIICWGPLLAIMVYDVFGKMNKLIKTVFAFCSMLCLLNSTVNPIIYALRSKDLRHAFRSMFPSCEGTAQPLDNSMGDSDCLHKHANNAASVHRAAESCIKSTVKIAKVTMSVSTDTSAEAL
UniProt P32121: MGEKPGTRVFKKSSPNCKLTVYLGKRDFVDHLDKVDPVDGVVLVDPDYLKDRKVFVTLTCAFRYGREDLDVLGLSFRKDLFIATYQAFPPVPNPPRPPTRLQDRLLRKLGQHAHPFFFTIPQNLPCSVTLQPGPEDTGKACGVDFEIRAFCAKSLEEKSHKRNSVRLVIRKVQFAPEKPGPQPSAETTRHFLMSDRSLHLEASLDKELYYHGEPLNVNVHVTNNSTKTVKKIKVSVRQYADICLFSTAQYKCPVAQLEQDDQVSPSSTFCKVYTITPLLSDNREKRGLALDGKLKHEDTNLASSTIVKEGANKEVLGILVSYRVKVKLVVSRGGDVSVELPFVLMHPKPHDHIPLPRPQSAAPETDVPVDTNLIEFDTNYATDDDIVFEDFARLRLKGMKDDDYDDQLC

Target: cannabinoid receptor 1, Rluc fusion (CB1R-Rluc) (UniProt P21554)
Experiment: FRET or BRET; β-arrestin 2 recruitment BRET in intact HEK-293T cells in PBS: CB1R-Rluc donor, β-arrestin 2-Venus acceptor, GRK2 cotransfected; 5 μM coelenterazine H; agonist-induced (CP55940, AM2201, 5F-NNEI, 5F-SDB-006, 5F-CUMYL-PICA, 5F-MMB-PICA, 5F-MDMB-PICA, WIN55-212-2, Δ9-THC, AEA, 2AG); read at 2, 16, 30 and 44 min, 37 °C; BRET change = ratio with drug minus ratio without drug

binding: binds
Substance: β-arrestin 2, Venus fusion (β-arrestin 2-Venus) (from UniProt P32121 1-409)
